Measurements as given in patent US8703726B2, “Methods for treating prostate conditions” (PTC Therapeutics, Inc., priority 2009, dated 2014).
At least one compound was matched to its structure with a doubt left.

Columns and labels:
HT1080 xenografts = experiment: HT1080 xenograft tumor growth, Compound 1205, 1330 and #10 (Studies 21-24b); format: in vivo, mice; conditions: Study #24a, 10 mg/kg QD
HT1080 cells = experiment: Cell cycle analysis by propidium iodide flow cytometry in HT1080 cells (% cells in S-phase, Table 24); format: cell-based, human; conditions: HT1080, normoxic, 18 hours; Compound #10 0.3-100 nM, Compound 1205 10 nM
Description: Experimental Design. […] After treatment, cells were trypsinized, and stained with propidium iodide (PI) dye to measure DNA content of individual cells by flow cytometry. Output comprised histograms showing relative DNA content in 10,000 cells.
While compounds which cause greater than 20% of the cells to accumulate in S-phase at 100 nM are considered active, a larger percentage of cells may be accumulated in S-phase at lower doses depending on the Compound, as shown in FIG. 12 for example.

VEGF121 and VEGF165 = experiment: ELISA of soluble VEGF production in HeLa cells under hypoxia or normoxia; format: cell-based, human; conditions: hypoxia, 48 hours
[1] = system: LNCaP prostate tumor cells; experiment: LNCaP tumors in SCID mice: Compound #10 as monotherapy and with bicalutamide; conditions: Day 30; bicalutamide 25 mg/kg QD

Compound | growth of HT1080 tumors in vivo (HT1080 xenografts) | cell cycle distribution (PI DNA content) (HT1080 cells) | inhibition of stress-induced VEGF production (VEGF121 and VEGF165) | inhibition of tumor size or of the increase in tumor size versus vehicle [1]
O=C(Oc1ccc(Cl)cc1)N1CCc2c([nH]c3ccc(Cl)cc23)[C@H]1c1ccc(OCC[C@H](O)CO)cc1 [Compound 1330] | overlapped with the growth of tumors in mice treated with 0.5% HPMC vehicle |  |  | 
O=C(Oc1ccc(Cl)cc1)N1CCc2c([nH]c3ccc(Cl)cc23)[C@@H]1c1ccc(OCC[C@H](O)CO)cc1 [Compound 1205] | significantly delayed growth | induced a redistribution of the cycling characteristics of the cell population | inhibit stress-induced VEGF production | 
CC(O)(CS(=O)(=O)c1ccc(F)cc1)C(=O)Nc1ccc(C#N)c(C(F)(F)F)c1 (centres unmarked) [bicalutamide] |  |  |  | No statistically significant differences
